{"source": "PubChem BioAssay AID1259308 (NCATS, 2017)", "screen": "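Knock-downs that increase output of a recombinant reporter protein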 (primary screen)", "cells": "human HEK293 embryonic kidney cells stably expressing firefly luciferase (HEK-CMV-Luc2-Hygro)", "knock-down reagent": "single siRNA against human genes, 0.8 pmol siRNA per well", "timing": "72 h", "detection": "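Luciferase light (ONE-Glo) measured on one replicate plate set and viability (CellTiter-Glo) on the other, scaled to a negative control siRNA, with robust z-scores and luciferase per cell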", "scale": "total luciferase, z-score and total luciferase, % of control: higher = more reporter protein produced", "hit rule": "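Active when the median/MAD z-score for overall luciferase is greater than 3; a gene was taken forward for validation with new siRNAs if at least two of its three siRNAs passed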", "meaning of the calls": "active = raised luciferase; inactive = no rise", "note": "The deposit covers about 59,000 reagents; this is a random part of them. In the full data, about 1,510 (2.6%) were called active. 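Calls use total luciferase alone and ignore viability, so some active siRNAs may act by altering cell number.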 The numbers tell different reagents against one gene apart. Further read-outs or replicates are left out here. Reagent sequences are not shown."}
{"target gene": "RCVRN", "reagent": 1, "total luciferase, z-score": 3.05, "total luciferase, % of control": 143, "Outcome": "active"}
{"target gene": "RCVRN", "reagent": 2, "total luciferase, z-score": -0.17, "total luciferase, % of control": 78.5, "Outcome": "inactive"}
{"target gene": "RCVRN", "reagent": 3, "total luciferase, z-score": 0.36, "total luciferase, % of control": 89, "Outcome": "inactive"}
{"target gene": "ZNF300", "reagent": 1, "total luciferase, z-score": 0.177, "total luciferase, % of control": 85.4, "Outcome": "inactive"}
{"target gene": "ZNF300", "reagent": 2, "total luciferase, z-score": 0.0948, "total luciferase, % of control": 83.8, "Outcome": "inactive"}
{"target gene": "ZNF300", "reagent": 3, "total luciferase, z-score": -0.266, "total luciferase, % of control": 76.6, "Outcome": "inactive"}
{"target gene": "NRBP2", "reagent": 1, "total luciferase, z-score": 4.45, "total luciferase, % of control": 170, "Outcome": "active"}
{"target gene": "NRBP2", "reagent": 2, "total luciferase, z-score": -1.06, "total luciferase, % of control": 60.8, "Outcome": "inactive"}
{"target gene": "NRBP2", "reagent": 3, "total luciferase, z-score": -1.7, "total luciferase, % of control": 48.1, "Outcome": "inactive"}
{"target gene": "PLD4", "reagent": 1, "total luciferase, z-score": 0.979, "total luciferase, % of control": 101, "Outcome": "inactive"}
{"target gene": "PLD4", "reagent": 2, "total luciferase, z-score": -0.302, "total luciferase, % of control": 75.9, "Outcome": "inactive"}
{"target gene": "PLD4", "reagent": 3, "total luciferase, z-score": 1.25, "total luciferase, % of control": 107, "Outcome": "inactive"}
{"target gene": "PPP1R14B", "reagent": 1, "total luciferase, z-score": 0.414, "total luciferase, % of control": 90.1, "Outcome": "inactive"}
{"target gene": "PPP1R14B", "reagent": 2, "total luciferase, z-score": -0.246, "total luciferase, % of control": 77, "Outcome": "inactive"}
{"target gene": "PPP1R14B", "reagent": 3, "total luciferase, z-score": -0.834, "total luciferase, % of control": 65.3, "Outcome": "inactive"}
{"target gene": "MIA2", "reagent": 1, "total luciferase, z-score": 0.655, "total luciferase, % of control": 94.9, "Outcome": "inactive"}
{"target gene": "MIA2", "reagent": 2, "total luciferase, z-score": -0.91, "total luciferase, % of control": 63.8, "Outcome": "inactive"}
{"target gene": "MIA2", "reagent": 3, "total luciferase, z-score": -0.354, "total luciferase, % of control": 74.8, "Outcome": "inactive"}
{"target gene": "MIA2", "reagent": 4, "total luciferase, z-score": 0.135, "total luciferase, % of control": 84.6, "Outcome": "inactive"}
{"target gene": "MIA2", "reagent": 5, "total luciferase, z-score": 3.71, "total luciferase, % of control": 156, "Outcome": "active"}
{"target gene": "MIA2", "reagent": 6, "total luciferase, z-score": -2.17, "total luciferase, % of control": 38.8, "Outcome": "inactive"}
{"target gene": "CEACAM3", "reagent": 1, "total luciferase, z-score": -0.391, "total luciferase, % of control": 74.1, "Outcome": "inactive"}
{"target gene": "CEACAM3", "reagent": 2, "total luciferase, z-score": -0.346, "total luciferase, % of control": 75, "Outcome": "inactive"}
{"target gene": "CEACAM3", "reagent": 3, "total luciferase, z-score": 0.281, "total luciferase, % of control": 87.5, "Outcome": "inactive"}
{"target gene": "ANKS1A", "reagent": 1, "total luciferase, z-score": -0.224, "total luciferase, % of control": 77.4, "Outcome": "inactive"}
{"target gene": "ANKS1A", "reagent": 2, "total luciferase, z-score": -0.857, "total luciferase, % of control": 64.8, "Outcome": "inactive"}
{"target gene": "ANKS1A", "reagent": 3, "total luciferase, z-score": -0.516, "total luciferase, % of control": 71.6, "Outcome": "inactive"}
{"target gene": "PRKCSH", "reagent": 1, "total luciferase, z-score": -1.04, "total luciferase, % of control": 61.2, "Outcome": "inactive"}
{"target gene": "PRKCSH", "reagent": 2, "total luciferase, z-score": -0.536, "total luciferase, % of control": 71.2, "Outcome": "inactive"}
{"target gene": "PRKCSH", "reagent": 3, "total luciferase, z-score": -1.71, "total luciferase, % of control": 47.8, "Outcome": "inactive"}
{"target gene": "C17orf100", "reagent": 1, "total luciferase, z-score": 0.0158, "total luciferase, % of control": 82.2, "Outcome": "inactive"}
{"target gene": "C17orf100", "reagent": 2, "total luciferase, z-score": -1.24, "total luciferase, % of control": 57.3, "Outcome": "inactive"}
{"target gene": "C17orf100", "reagent": 3, "total luciferase, z-score": 1.05, "total luciferase, % of control": 103, "Outcome": "inactive"}
